Assay results from PMC4657329.
Results are given in words; binding and its absence hold for the method and conditions named. A result given as binding can be weak or reduced; the word gives no strength. Tags and fused reporters may be left off the sequences shown.

target: GST-^EB1Bim1 (the EB1 domain of Bim1 as a GST-fusion) (S. cerevisiae); experiment: pull-down; GST-^EB1Bim1 bound to beads (bait), recombinant ^MBPKip2ΔC^GFP variants as prey; Coomassie-stained gels; both purified

binding | Binder
binds weakly | Δ70 variant of ^MBPKip2ΔC^GFP (domain or fragment, UniProt P28743 71-560) KSDPFLHPGRIRIRRSDSINNNSRKNDTYTGSITVTIRPKPRSVGTSRDHVGLKSPRYSQPRSNSHHGSNTFVRDPWFITNDKTIVHEEIGEFKFDHVFASHCTNLEVYERTSKPMIDKLLMGFNATIFAYGMTGSGKTFTMSGNEQELGLIPLSVSYLFTNIMEQSMNGDKKFDVIISYLEIYNERIYDLLESGLEESGSRISTPSRLYMSKSNSNGLGVELKIRDDSQYGVKVIGLTERRCESSEELLRWIAVGDKSRKIGETDYNARSSRSHAIVLIRLTSTNVKNGTSRSSTLSLCDLAGSERATGQQERRKEGSFINKSLLALGTVISKLSADKMNSVGSNIPSPSASGSSSSSGNATNNGTSPSNHIPYRDSKLTRLLQPALSGDSIVTTICTVDTRNDAAAETMNTLRFASRAKNVALHVSKKSIISNGNNDGDKDRTIELLRRQLEEQRRMISELKNRSNIGEPLTKSSNESTYKDIKATGN
binds | ^MBPKip2ΔC^GFP (MBP-fusion of Kip2 lacking the C-terminal tail, Kip2 1-560, followed by GFP) (domain or fragment, UniProt P28743 1-560) MIQKMSPSLRRPSTRSSSGSSNIPQSPSVRSTSSFSNLTRNSIRSTSNSGSQSISASSTRSNSPLRSVSAKSDPFLHPGRIRIRRSDSINNNSRKNDTYTGSITVTIRPKPRSVGTSRDHVGLKSPRYSQPRSNSHHGSNTFVRDPWFITNDKTIVHEEIGEFKFDHVFASHCTNLEVYERTSKPMIDKLLMGFNATIFAYGMTGSGKTFTMSGNEQELGLIPLSVSYLFTNIMEQSMNGDKKFDVIISYLEIYNERIYDLLESGLEESGSRISTPSRLYMSKSNSNGLGVELKIRDDSQYGVKVIGLTERRCESSEELLRWIAVGDKSRKIGETDYNARSSRSHAIVLIRLTSTNVKNGTSRSSTLSLCDLAGSERATGQQERRKEGSFINKSLLALGTVISKLSADKMNSVGSNIPSPSASGSSSSSGNATNNGTSPSNHIPYRDSKLTRLLQPALSGDSIVTTICTVDTRNDAAAETMNTLRFASRAKNVALHVSKKSIISNGNNDGDKDRTIELLRRQLEEQRRMISELKNRSNIGEPLTKSSNESTYKDIKATGN
binds | ^MBPKip2ΔC^GFP with the N-terminal SxIP^1 motif mutated (SNIP to SNNN) (domain or fragment, UniProt P28743 1-560) MIQKMSPSLRRPSTRSSSGSSNNNQSPSVRSTSSFSNLTRNSIRSTSNSGSQSISASSTRSNSPLRSVSAKSDPFLHPGRIRIRRSDSINNNSRKNDTYTGSITVTIRPKPRSVGTSRDHVGLKSPRYSQPRSNSHHGSNTFVRDPWFITNDKTIVHEEIGEFKFDHVFASHCTNLEVYERTSKPMIDKLLMGFNATIFAYGMTGSGKTFTMSGNEQELGLIPLSVSYLFTNIMEQSMNGDKKFDVIISYLEIYNERIYDLLESGLEESGSRISTPSRLYMSKSNSNGLGVELKIRDDSQYGVKVIGLTERRCESSEELLRWIAVGDKSRKIGETDYNARSSRSHAIVLIRLTSTNVKNGTSRSSTLSLCDLAGSERATGQQERRKEGSFINKSLLALGTVISKLSADKMNSVGSNIPSPSASGSSSSSGNATNNGTSPSNHIPYRDSKLTRLLQPALSGDSIVTTICTVDTRNDAAAETMNTLRFASRAKNVALHVSKKSIISNGNNDGDKDRTIELLRRQLEEQRRMISELKNRSNIGEPLTKSSNESTYKDIKATGN
binds | ^MBPKip2ΔC^GFP with both EB1-binding motifs mutated (SxIP^1 and SxIP^2, SNIP to SNNN) (domain or fragment, UniProt P28743 1-560) MIQKMSPSLRRPSTRSSSGSSNNNQSPSVRSTSSFSNLTRNSIRSTSNSGSQSISASSTRSNSPLRSVSAKSDPFLHPGRIRIRRSDSINNNSRKNDTYTGSITVTIRPKPRSVGTSRDHVGLKSPRYSQPRSNSHHGSNTFVRDPWFITNDKTIVHEEIGEFKFDHVFASHCTNLEVYERTSKPMIDKLLMGFNATIFAYGMTGSGKTFTMSGNEQELGLIPLSVSYLFTNIMEQSMNGDKKFDVIISYLEIYNERIYDLLESGLEESGSRISTPSRLYMSKSNSNGLGVELKIRDDSQYGVKVIGLTERRCESSEELLRWIAVGDKSRKIGETDYNARSSRSHAIVLIRLTSTNVKNGTSRSSTLSLCDLAGSERATGQQERRKEGSFINKSLLALGTVISKLSADKMNSVGSNNNSPSASGSSSSSGNATNNGTSPSNHIPYRDSKLTRLLQPALSGDSIVTTICTVDTRNDAAAETMNTLRFASRAKNVALHVSKKSIISNGNNDGDKDRTIELLRRQLEEQRRMISELKNRSNIGEPLTKSSNESTYKDIKATGN
